Data source: PubChem BioAssay AID1159584 (Peter MacCallum Cancer Centre, 2016)
Test: 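Genes that CDH1-null MCF10A cells selectively depend on to survive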 (primary screen). Cells: human MCF10A breast epithelial cells, parental and CDH1-null. Reagent: siRNA against human genes. Measurement: 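ATP luminescence (CellTiter-Glo) viability per line relative to mean mock wells over all plates, and the ratio of CDH1-null to parental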. Scale: CDH1-null / parental viability ratio: higher = CDH1-null cells survive relatively better than parental.
This is an unselected part of about 18,000 deposited reagents. Not all columns of the deposit are shown. Not given: the amount of reagent, the time to read-out.

{"gene knocked down": "CLPX", "CDH1-null / parental viability ratio": 1.03}
{"gene knocked down": "MRPS5", "CDH1-null / parental viability ratio": 1.12}
{"gene knocked down": "PSMC3", "CDH1-null / parental viability ratio": 1.12}
{"gene knocked down": "BAALC", "CDH1-null / parental viability ratio": 1.07}
{"gene knocked down": "NFYC", "CDH1-null / parental viability ratio": 1}
{"gene knocked down": "SLC25A47", "CDH1-null / parental viability ratio": 0.92}
{"gene knocked down": "CCNP", "CDH1-null / parental viability ratio": 0.84}
{"gene knocked down": "SLC35F1", "CDH1-null / parental viability ratio": 0.68}
{"gene knocked down": "GRM4", "CDH1-null / parental viability ratio": 0.83}
{"gene knocked down": "PREX1", "CDH1-null / parental viability ratio": 0.84}
{"gene knocked down": "EGFR", "CDH1-null / parental viability ratio": 0.85}
{"gene knocked down": "PPP2R5B", "CDH1-null / parental viability ratio": 1.15}
{"gene knocked down": "UTRN", "CDH1-null / parental viability ratio": 1.02}
{"gene knocked down": "MCEE", "CDH1-null / parental viability ratio": 0.96}
{"gene knocked down": "SLC49A4", "CDH1-null / parental viability ratio": 0.76}
{"gene knocked down": "SNAPC4", "CDH1-null / parental viability ratio": 1.12}
{"gene knocked down": "FAHD1", "CDH1-null / parental viability ratio": 0.87}
{"gene knocked down": "YPEL5", "CDH1-null / parental viability ratio": 0.69}
{"gene knocked down": "FBLIM1", "CDH1-null / parental viability ratio": 1.17}
{"gene knocked down": "TICRR", "CDH1-null / parental viability ratio": 0.9}
{"gene knocked down": "SERPINB6", "CDH1-null / parental viability ratio": 0.83}
{"gene knocked down": "EIF4G3", "CDH1-null / parental viability ratio": 0.73}
{"gene knocked down": "SLITRK5", "CDH1-null / parental viability ratio": 0.99}
{"gene knocked down": "SLC8A3", "CDH1-null / parental viability ratio": 1.13}
{"gene knocked down": "NLRP11", "CDH1-null / parental viability ratio": 1.17}
{"gene knocked down": "RND2", "CDH1-null / parental viability ratio": 1.6}
{"gene knocked down": "CENPL", "CDH1-null / parental viability ratio": 1.11}
{"gene knocked down": "SOX10", "CDH1-null / parental viability ratio": 1.12}
{"gene knocked down": "PRDM16", "CDH1-null / parental viability ratio": 0.96}
{"gene knocked down": "CTNNBL1", "CDH1-null / parental viability ratio": 0.81}
{"gene knocked down": "NRBP1", "CDH1-null / parental viability ratio": 0.78}
{"gene knocked down": "RNF26", "CDH1-null / parental viability ratio": 0.81}
{"gene knocked down": "ZNF579", "CDH1-null / parental viability ratio": 0.97}
{"gene knocked down": "PKNOX1", "CDH1-null / parental viability ratio": 0.76}
{"gene knocked down": "MAPKAPK2", "CDH1-null / parental viability ratio": 0.96}
{"gene knocked down": "KIAA1191", "CDH1-null / parental viability ratio": 1.13}
{"gene knocked down": "CYP4A11", "CDH1-null / parental viability ratio": 1.3}
{"gene knocked down": "ACTN2", "CDH1-null / parental viability ratio": 1.24}
{"gene knocked down": "OSBPL5", "CDH1-null / parental viability ratio": 0.99}
{"gene knocked down": "NPHP1", "CDH1-null / parental viability ratio": 1.09}
{"gene knocked down": "SBK1", "CDH1-null / parental viability ratio": 0.93}
{"gene knocked down": "CRELD2", "CDH1-null / parental viability ratio": 0.91}
{"gene knocked down": "ADA", "CDH1-null / parental viability ratio": 0.96}
{"gene knocked down": "FCRL3", "CDH1-null / parental viability ratio": 0.89}
{"gene knocked down": "CD101", "CDH1-null / parental viability ratio": 1}

Laid out differently: 7 of the entries above.
| gene knocked down | CDH1-null / parental viability ratio |
| --- | --- |
| FAHD1 | 0.87 |
| YPEL5 | 0.69 |
| FBLIM1 | 1.17 |
| TICRR | 0.9 |
| SERPINB6 | 0.83 |
| EIF4G3 | 0.73 |
| SLITRK5 | 0.99 |
